Measured data: PubChem BioAssay AID1259276 (Sanger Institute, 2017)
Here is an unselected part of 794 deposited reagents. 24 of all reagents (3%) count as active. 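Calls come only from the siRNA-alone arm; drug synergy scores do not affect them.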 Entries without a mark were called inactive. No viability above 1 is reported: the scale is capped. Further read-outs or replicates are left out here. Not stated in the record: the amount of reagent, the time to read-out.

Screen: 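Kinome-wide search for kinases colon cancer cells need, and for drug partners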 (primary screen)
Cells: human C2BBe1 colorectal cancer cells
Knock-down reagent: siRNA pool against human genes
Treatment: DMSO vehicle, or one anchor drug: BYL719 at 1 µM, cetuximab at 5 µg/ml, or trametinib at 10 nM; exposure length not stated
Read-out: 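Viability after knock-down relative to non-targeting siRNA controls, averaged across replicates, given as ratio and control-derived robust z-score, with per-drug synergy scores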
Scale: viability robust z-score, siRNA alone and viability vs control, siRNA alone: higher = more viable cells after knock-down; synergy score with BYL719: higher = stronger combined killing with BYL719
Call rule: 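Called essential when knock-down alone gives a viability robust z-score below -3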
Meaning of the calls: active = essential (siRNA alone); inactive = no change (siRNA alone)

no.	gene knocked down	PubChem SID	viability robust z-score, siRNA alone	viability vs control, siRNA alone	synergy score with BYL719
1	RPS6KA1 (ribosomal protein S6 kinase A1)	SID152152227	0.472	1	0.00197
2	JAK3 (Janus kinase 3)	SID56478525	0.472	1	-0.1
3	CKS1B (CDC28 protein kinase regulatory subunit 1B)	SID56478807	0.472	1	-0.142
4	DGKA (diacylglycerol kinase alpha)	SID152151940	0.472	1	0.205
5	PNCK (pregnancy up-regulated nonubiquitous CaM kinase)	SID152151558	0.472	1	-0.0262
6	MASTL (microtubule associated serine/threonine kinase like)	SID56478754	0.472	1	-0.108
7	TBX3 (T-box transcription factor 3)	SID134316486	0.472	1	-0.0166
8	ABL2 (ABL proto-oncogene 2, non-receptor tyrosine kinase)	SID152153611	0.472	1	0.0615
9	CDKL3 (cyclin dependent kinase like 3)	SID56478871	-1.6	0.869	-0.254
10	EPHA6 (EPH receptor A6)	SID152153448	0.35	0.992	0.419

Next part; the last 2 above are carried over.
no.	gene knocked down	PubChem SID	viability robust z-score, siRNA alone	viability vs control, siRNA alone	synergy score with BYL719
9	CDKL3 (cyclin dependent kinase like 3)	SID56478871	-1.6	0.869	-0.254
10	EPHA6 (EPH receptor A6)	SID152153448	0.35	0.992	0.419
11	PBK (PDZ binding kinase)	SID56479058	-0.291	0.952	-0.183
12	SHPK (sedoheptulokinase)	SID135621260	0.472	1	-0.119
13	SRC (SRC proto-oncogene, non-receptor tyrosine kinase)	SID56478553	-0.202	0.958	0.179
14	PHKA1 (phosphorylase kinase regulatory subunit alpha 1)	SID152155157	0.472	1	0.0342
15	SPHK1 (sphingosine kinase 1)	SID152154122	-1.58	0.871	0.0348
16	TNK2 (tyrosine kinase non receptor 2)	SID56478482	0.472	1	-0.105
17	TEC (tec protein tyrosine kinase)	SID152148252	0.472	1	0.0698
18	PRKAR2B	SID56479179	0.472	1	0.371
19	CSNK1G2 (casein kinase 1 gamma 2)	SID152151854	-2.31	0.825	-0.101
20	TLK2 (tousled like kinase 2)	SID56479057	0.472	1	-0.142
